The results in this text go back to PubChem BioAssay AID493014 (National Center for Advancing Translational Sciences (NCATS), 2011).

This test in a line: qHTS Assay to Find Inhibitors of Chronic Active B-Cell Receptor Signaling. As to conditions: ABC-DLBCL IkBa-CBG/CBR reporter, luminescence ratio (green luciferase fused to IkBa over red control in TMD8 lymphoma cells), 4 h. In short, it runs like this: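 TMD8 human ABC-DLBCL cells with doxycycline-inducible IκBα–green luciferase fusion and unfused red luciferase, in 0.5% FBS medium; compounds up to 46 uM, 4 h at 37C. Green/red luminescence ratio, filter-overlap corrected, fitted to concentration-response curves.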

[1] abbreviates: measured here: CBR red luminescence, cell number.
Where [2] appears, read: measured here: IkBa-CBG green luminescence.

The list shows a part of the results. Further columns of the screen follow, without active or inactive calls. The list favours compounds with an active or inconclusive main result. Potencies come from curve fits of mixed quality, noted in brackets.

Consider `CCS(=O)(=O)C1=NN2C(=N)/C(=C\c3ccc(SCc4ccco4)o3)C(=O)N=C2S1`, for which the AC50 under setting [1] was 35.5 µM [rising, single point].

Turning to `COc1ccc(OC)c(C(=O)CSc2nc3ncccc3[nH]2)c1`, the AC50 under setting [1] is 15.8 µM [falling, single point].

Regarding `O=C(O)C(Cc1c[nH]c2ccccc12)N1C(=O)C2C3c4ccccc4C(c4ccccc43)C2C1=O` (centres undefined), the AC50 under setting [1] was 15.8 µM [falling, partial curve, poor fit].

Turning to `CC[C@@H]1[C@H]2CCCC(=O)N3CC[C@@H](C[C@@H]1Nc1ccccc1)[C@@H]23`, the AC50 under setting [1] is 7.08 µM [falling, partial curve, poor fit].

As for `COc1ccc(CN2CCC(N(CCc3ccccc3)Cc3ccccc3)CC2)c(OC)c1`, the AC50 under setting [1] is 20 µM [falling, single point].

Regarding `COc1ccc(C)cc1NC(=O)C/C(C)=N/NC(=O)Cc1cccc2ccccc12`, the AC50 under setting [1] was 35.5 µM [falling, single point].

On to `O=C(CN1CCC(C(=O)c2ccc3c(c2)OCCO3)CC1)NCc1ccc(F)cc1`, for which the AC50 under setting [1] is 35.5 µM [falling, single point].

On to `CCCCn1c(N)c(N(CCOC)C(=O)CN2C(=O)c3ccccc3C2=O)c(=O)[nH]c1=O`, for which the AC50 under setting [1] is 14.1 µM [falling, single point].

In the case of `COc1cc(NC(=O)c2ccc3c(c2)OCCO3)ccc1NC(=O)c1ccco1`, the AC50 under setting [1] was 35.5 µM [falling, single point].

Regarding `Cc1ccc(NC(=O)c2cccc(Cl)c2)nc1`, the AC50 under setting [1] is 3.98 µM [falling, full curve].

For `CCCC(=O)NC(c1ccc(C(C)C)cc1)c1ccc2cccnc2c1O` (centres undefined), under setting [1], the AC50 is 35.5 µM [falling, partial curve, poor fit].

Turning to `Cc1cc(NC(=O)CSc2ccc(-c3nc4cc(C)c(C)cc4[nH]3)cn2)no1`, under setting [1], the AC50 was 0.316 µM [falling, full curve, poor fit].

Take `Oc1ccc(N=C/C=C/c2cccc(Br)c2)cc1-c1nc2ccccc2s1`: under setting [1], the AC50 was 29.1 µM [falling, single point].

`Cc1ccc(-n2ncc3c(NC4CCCC4)ncnc32)cc1`: the AC50 under setting [1] was 1.41 µM [falling, full curve].

On to `O=C(OC[C@H]1O[C@@H](OC(=O)c2cc(O)c(O)c(OC(=O)c3cc(O)c(O)c(O)c3)c2)[C@H](OC(=O)c2cc(O)c(O)c(OC(=O)c3cc(O)c(O)c(O)c3)c2)[C@@H](OC(=O)c2cc(O)c(O)c(OC(=O)c3cc(O)c(O)c(O)c3)c2)[C@@H]1OC(=O)c1cc(O)c(O)c(OC(=O)c2cc(O)c(O)c(O)c2)c1)c1cc(O)c(O)c(OC(=O)c2cc(O)c(O)c(O)c2)c1`, for which, under setting [1], the AC50 is 25.9 µM [rising, partial curve].

On to `COc1ccc(NC(=O)c2nnn(Cc3ccc(SC)cc3)c2N)c(OC)c1`, for which the concentration at half-maximal activity (AC50) is, setting by setting: under setting [1], 13 µM [rising, partial curve]; under setting [2], 10.3 µM [falling, partial curve, poor fit].

As to `Nc1nc(NC(=O)c2cccnc2)nn1-c1ccccc1`, the AC50 under setting [1] is 11.2 µM [falling, partial curve].

On to `CC(C(=O)N1CCC(C(N)=O)CC1)N(c1ccc(Oc2ccccc2)cc1)S(C)(=O)=O` (centres undefined), for which, under setting [1], the AC50 is 11.6 µM [rising, single point].

Consider `COc1ccc(C)cc1NC(=O)CN1CCN(S(=O)(=O)c2ccc(C(C)C)cc2)CC1`, for which the AC50 under setting [2] is 3.26 µM [rising, partial curve, poor fit].

In the case of `COc1ccc(C(=O)N/C(=C\c2cn(S(=O)(=O)N(C)C)c3ccccc23)C(=O)NCCCN2CCOCC2)cc1`, the AC50 under setting [1] was 17.8 µM [falling, partial curve, poor fit].

On to `CCCc1oc(C(=O)O)cc1CN1CCCC1`, for which the AC50 under setting [1] is 0.92 µM [rising, partial curve, poor fit].

Consider `CCOc1ccc(-n2c(SCC(=O)O)nc3sc4c(c3c2=O)CCCC4)cc1`, for which the AC50 under setting [1] was 15.8 µM [rising, single point].

Turning to `CCOC(=O)C1=C(C)NC(SC)=NC1c1ccccc1` (centres undefined), the AC50 under setting [1] was 20.6 µM [rising, single point].

On to `Cc1cccc(NC(=O)COc2ccccc2C(=O)NC(C)c2ccccc2)c1` (centres undefined), for which the AC50 under setting [1] was 0.631 µM [rising, full curve, poor fit].

In the case of `COc1cccc(/C=N/NC(=S)Nc2cccnc2)c1`, the AC50 is, setting by setting: under setting [1], 11.2 µM [falling, partial curve]; under setting [2], 31.6 µM [falling, single point].

With `COC(=O)CCC(=O)N1CCCC(CNS(=O)(=O)c2ccc(OC)cc2)C1` (centres undefined), the AC50 under setting [1] was 35.5 µM [rising, single point].

For `O=C(COc1cccc2cccnc12)N1CCc2ccccc21`, the AC50 under setting [1] is 12.6 µM [falling, partial curve].

Turning to `CC(/C=C1\SC(=O)N(CC(=O)Nc2ccc(O)cc2)C1=O)=C\c1ccccc1`, under setting [1], the AC50 is 0.58 µM [rising, full curve].

As for `CC(C)(C)c1ccc(C2SCC(=O)N2c2cccc(C(=O)O)c2)cc1` (centres undefined), the AC50 under setting [1] is 25.1 µM [rising, single point].

On to `C[C@H](NC(=O)CCCn1nnc2ccccc2c1=O)C(=O)O`, for which the AC50 under setting [1] is 5.62 µM [rising, single point].

With `COc1ccc(-c2nnc(-c3ccc(C)cc3)o2)cc1`, the AC50 under setting [1] is 35.5 µM [rising, single point].

For `O=C(N/N=C/c1ccccc1C(=O)O)c1ccccc1Br`, under setting [1], the concentration at half-maximal activity (AC50) is 6.31 µM [falling, partial curve, poor fit].

Consider `CC(=O)Nc1ccc(S(=O)(=O)Nc2ccccc2C(=O)N2CCCC2)cc1`, for which the AC50 under setting [1] is 3.16 µM [falling, single point].

Turning to `Oc1nc(-c2ccc(Cl)cc2)n2ccncc12`, the AC50 under setting [1] is 0.447 µM [rising, full curve, poor fit].

For `CCN(CC(=O)Nc1ccc(OC)c(OC)c1)S(=O)(=O)c1ccc(C)cc1`, the AC50 under setting [1] is 6.51 µM [rising, full curve, poor fit].

Take `CCCCC(=O)O[C@H]1CC[C@H]2[C@@H]3CCc4cc(O)ccc4[C@H]3CC[C@]12C`: the AC50 under setting [1] was 9.2 µM [rising, partial curve, poor fit].

`CN1C2C=C3C(C#N)=C(N)C(C#N)(C#N)[C@@H](c4cccs4)C3C1CC2` (some centres undefined): under setting [1], the half-maximal activity concentration (AC50) is 25.9 µM [rising, single point].

Turning to `COc1cccc(-c2nnn(CC(=O)N(CC(C)C)C3CCS(=O)(=O)C3)n2)c1` (centres undefined), the AC50 under setting [1] is 10.3 µM [falling, partial curve].

For `Cc1ccc(Nc2nc(CSc3nnc(-c4ccncc4)n3-c3ccccc3C)cs2)cc1`, the AC50 under setting [1] is 16.4 µM [falling, partial curve].

For the compound `Cc1cc(C)cc(NC(=O)NCC(O)COc2ccc([N+](=O)[O-])cc2)c1` (centres undefined), under setting [1], the AC50 is 35.5 µM [falling, single point].

On to `CN(Cc1cnccn1)Cc1cn(Cc2ccccc2)nc1-c1ccc2c(c1)OCO2`, for which, under setting [1], the concentration at half-maximal activity (AC50) was 3.16 µM [rising, single point].

In the case of `Cc1cc(N)n2ncc(-c3ccc(Cl)cc3)c2n1`, under setting [1], the AC50 is 0.1 µM [rising, full curve, poor fit].

Take `Cc1oc(-c2ccc(Cl)cc2)cc1C(=O)/C(C#N)=C/Nc1cccc(OC(F)(F)F)c1`: the AC50 is 1.26 µM [rising, partial curve, poor fit] under setting [1] and 2.51 µM [rising, full curve, poor fit] under setting [2].

In the case of `O=C(Nc1nc(-c2cccnc2)cs1)c1cccc([N+](=O)[O-])c1`, under setting [1], the AC50 is 0.158 µM [rising, full curve, poor fit].

`CCC(C)c1ccc(NS(=O)(=O)c2c(C)[nH]c(=O)[nH]c2=O)cc1` (centres undefined): under setting [1], the AC50 is 35.5 µM [falling, single point].

Turning to `COc1ccccc1C(=O)Nc1cc2cc(Br)ccc2oc1=O`, the AC50 under setting [1] was 29.1 µM [rising, single point].

`COc1cccc2c1OCC(CN1CCN(Cc3ccccc3)C(CCO)C1)=C2` (centres undefined): the AC50 under setting [1] is 5.62 µM [rising, single point].

With `C=CCNC(=S)Nc1ccc2cn[nH]c2c1`, the AC50 under setting [1] was 35.5 µM [falling, single point].

Regarding `CCOC(=O)c1[nH]nc(-c2cc(CC)c(O)cc2O)c1-c1cscn1`, the AC50 under setting [1] is 1 µM [falling, full curve, poor fit].

In the case of `CCCN1CCN(CCCNC(=O)c2cc3c(=O)[nH]c4ccc(C)cc4c3s2)CC1`, under setting [1], the AC50 is 7.94 µM [falling, partial curve, poor fit].

With `COc1nc(Nc2nc3ccccc3c(=O)[nH]2)nc2ccc(C)cc12`, the AC50 under setting [1] is 0.398 µM [falling, full curve, poor fit].

Regarding `COc1ccc(/C=C/C(=O)O)cc1OC`, under setting [1], the AC50 is 29.1 µM [rising, single point].

In the case of `Cc1ccc(NC(=O)C(C)Sc2nnc(C)n2C2CC2)cc1S(=O)(=O)N1CCOCC1` (centres undefined), the AC50 under setting [1] was 32.6 µM [rising, single point].

Regarding `Cc1ccc(C)c(OC(C)C(=O)Nc2ccc(S(=O)(=O)Nc3nccs3)cc2)c1` (centres undefined), the AC50 under setting [1] is 8.91 µM [falling, partial curve, poor fit].

As for `COC(=O)c1ccc(NC(=O)C2CCN(C(=O)c3cc(OC)c(OC)c(OC)c3)CC2)cc1`, the AC50 under setting [1] was 6.51 µM [rising, single point].

`COc1ccc(/C=C/C(=O)c2ccoc2)cc1`: the AC50 under setting [1] is 35.5 µM [falling, single point].

For the compound `Cc1ccccc1-n1c(SCC(=O)c2cc(C)n(C)c2C)nnc1-c1cccnc1`, the AC50 under setting [1] was 29.1 µM [falling, single point].

For the compound `Cc1cccc(/C=C/c2nc3ccccc3c(=O)n2Cc2ccccc2)c1`, under setting [1], the AC50 is 29.1 µM [falling, single point].

For `Cc1ccc(N/C=C/C(=O)c2ccco2)c(O)c1`, under setting [1], the AC50 is 10 µM [falling, partial curve, poor fit].

Consider `O=C(Cc1ccc(Cl)cc1)Oc1cccc2cccnc12`, for which the AC50 runs as follows: under setting [1], 23.1 µM [falling, partial curve]; under setting [2], 29.1 µM [falling, single point].

In general, AC50 refers to the midpoint of the concentration-response curve, whichever way the signal moves.
